From PubChem BioAssay AID504467 (National Center for Advancing Translational Sciences (NCATS), 2011)
Among all 330,000 compounds or so, about 7,700 (2.3%) were called active. This list was built around the results that the source calls inconclusive (neither active nor inactive); the mix of calls is not that of the screen. Calls come from the whole dose curve; as a rule, active = well fitted inhibition curve with a large enough effect; inconclusive = small, poorly fitted or top-dose-only effect, or effect the other way; inactive = flat fitted curve, though single readings scatter. Potencies beside an inconclusive call are fits to weak or partial responses and may not hold up.

Experiment: qHTS screen for small molecules that inhibit ELG1-dependent DNA repair in human embryonic kidney (HEK293T) cells expressing luciferase-tagged ELG1; note: nearly all actives have a fitted effect of over 55% in size
Conditions: HEK293T ELG1-luciferase reporter, luminescence, 16 h, DNA damage induced by 5-fluorouridine; series mostly up to 46.1 µM
In short: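 DMSO vehicle served as the neutral condition. Each well held 2,000 cells given 5-fluorouridine plus compound; after 16 hr at 37 °C/5% CO2, ONE-Glo was added and luciferase measured 30 min later.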
Potency is the fitted concentration of half-maximal effect.

SMILES | Potency
CCCN(CCC)CCCNC(=S)Nc1ccc2nc3n(c(=O)c2c1)CCCCC3 | inactive
C=C(C)c1cccc(C(C)(C)NC(=O)NCc2ccncc2)c1 | inconclusive: 29.1 µM [inhibitor, single point]
O=C(CCCOc1ccccc1)N1CCc2ccccc2C1 | inconclusive: 11.2 µM [activator, partial curve, poor fit]
O=c1cc[nH]c2c1ccc1cccnc12 | inconclusive: 35.5 µM [activator, single point]
CCc1ccc(-c2cc(C(=O)O)c3ccccc3n2)s1 | inconclusive: 2.59 µM [activator, full curve]
CNC(=S)N1N=C(c2ccc(C)cc2)CC1c1ccc(Cl)cc1 (centres undefined) | active: 16.4 µM
CC(C)(Oc1ccc(Cl)cc1)C(=O)NCC(c1ccco1)N1CCCCC1 (centres undefined) | inactive
O=C1C=C(N2CCCCC2)C2(CCCCC2)O1 | inactive
CC(C)(C)c1ccc(-c2nc3cc(N)ccc3o2)cc1 | inconclusive: 1.3 µM [activator, partial curve]
COc1c(C)cc(S(=O)(=O)NCc2ccccn2)c(C)c1C | inconclusive: 2.82 µM [inhibitor, single point]
c1ccc(CNc2ncnc3nc[nH]c23)nc1 | inactive
COc1ccc(S(=O)(=O)N2CCOCC2)cc1NC(=O)CSc1nnc2c(n1)[nH]c1ccccc12 | active: 23.1 µM
COc1ccc(-c2cc(C(F)(F)F)n3nc(C(=O)NCCN4CCOCC4)cc3n2)cc1 | inactive
O=C1NNC(c2ccccc2)=N/C1=C\c1ccc(Cl)cc1 | inconclusive: 16.4 µM [inhibitor, single point]
Cc1cc(N2CCCC2)ccc1NC(=O)COc1cccc(C(F)(F)F)c1 | inconclusive: 6.51 µM [inhibitor, single point]
CCOc1ccc(N/C=C/C(=O)c2ccc(OC)cc2)c([N+](=O)[O-])c1 | inconclusive: 2.91 µM [activator, partial curve]
NS(=O)(=O)c1cccc(NC(=O)CCN2C(=O)C3CCCCC3C2=O)c1 (centres undefined) | inactive
CCc1ccc(-c2csc(NC(=O)c3cccnc3)n2)cc1 | inactive
COc1ccc(/C=C2\CCCC3C2=NN(C(=O)c2scnc2C)C3c2ccc(OC)c(OC)c2)cc1OC (centres undefined) | inconclusive: 20.6 µM [inhibitor, single point]
C[C@@H]1CN([C@@H](C)CO)C(=O)c2cccc(NC(=O)c3nc4ccccc4s3)c2O[C@@H]1CN(C)CC1CC1 | inactive
C=CCNc1nc2c3ccccc3n(C(C)=O)c2s1 | inconclusive: 23.1 µM [activator, single point]
COc1ccc(/C=C/C(=O)c2ccc(O)cc2)cc1 | inconclusive: 20.6 µM [activator, single point]
COc1ccc(Cl)cc1S(=O)(=O)N(C)CC(=O)N1CCOCC1 | inactive
Cc1cccc2c1NC(=O)C21N2CCCC2C(C(=O)c2ccc3ccccc3c2)C12C(=O)Nc1ccccc12 (centres undefined) | inactive
O=C(COC(=O)CCCSc1nc2ccccc2[nH]1)Nc1cccc(F)c1 | inactive

SMILES | Potency
Cc1cc(NC(=O)NC(=O)c2cccc(OC(F)(F)C(F)F)c2)n[nH]1 | inconclusive: 9.2 µM [activator, partial curve]
CCN1C(=O)/C(=C/c2ccc(C)o2)N(C)C1=S | inconclusive: 20.6 µM [activator, single point]
CCCOc1ccc(N2CC(C(=O)Nc3ccccc3C(=O)NCc3ccco3)CC2=O)cc1 (centres undefined) | active: 18.4 µM
NC1=NC2(CCCCC2)N=C(Nc2ccc(Br)cc2)N1 | inconclusive: 20.6 µM [inhibitor, partial curve, poor fit]
CC(=O)Nc1cc(C(F)(F)F)ccc1Oc1cccc(Br)c1 | inactive
COC(=O)c1ccc(C(=O)N=c2sccn2C)cc1 | inconclusive: 11.6 µM [activator, partial curve]
COc1ccc(CNC(=O)CNC(=O)CNS(=O)(=O)c2ccc(C)c(C)c2)cc1 | inactive
C/C(=N\NC(=O)c1cc(Br)ccc1O)c1ccccn1 | inconclusive: 23.1 µM [activator, partial curve]
CC(=O)N1CCOc2ccc(S(=O)(=O)NCCc3ccccc3)cc21 | inactive
Cc1ccc(S(=O)(=O)NN2C(=O)/C(=C/c3ccc(C(=O)O)cc3)SC2=S)cc1 | inconclusive: 20.6 µM [activator, partial curve, poor fit]
COc1cc(CNCCc2ccccc2F)ccc1OCc1ccc(Cl)nc1 | inconclusive: 18.4 µM [activator, partial curve, poor fit]
NC(=O)c1cc(C(=O)c2ccc(Cl)cc2)c[nH]1 | inconclusive: 13 µM [inhibitor, partial curve, poor fit]
Clc1ccccc1-c1ccc2ncnc(NCc3ccc4c(c3)OCO4)c2c1 | inconclusive: 29.1 µM [inhibitor, single point]
O=C(c1ccc(F)cc1Cl)N1CCN(S(=O)(=O)c2cccs2)CC1 | inactive
CC1(C)CC(=O)C2=C(C1)Oc1ncn(Cc3ccco3)c(=N)c1C2c1ccccc1 (centres undefined) | inconclusive: 18.4 µM [inhibitor, partial curve]
Cc1nc2ccccc2c(=O)n1/N=C/c1ccccc1Cl | inconclusive: 18.3 µM [activator, partial curve]
COc1c(C)cccc1C(=O)Nc1ccc(N2CCN(C(=O)c3ccccc3C)CC2)cc1 | active: 10.3 µM
COc1ccc(C2C(C#N)=C(SCC(=O)Nc3ccc(C)cc3)NC3=C2C(=O)CC(C)(C)C3)cc1 (centres undefined) | inconclusive: 20.6 µM [inhibitor, single point]
CCOC(=O)C1CCN(C(=O)c2ccc(C)c(S(=O)(=O)N3CCCC3)c2)CC1 | inconclusive: 23.1 µM [activator, single point]
O=C(Nc1ccn(Cc2ccccc2)n1)c1cccc(Cn2cc([N+](=O)[O-])cn2)c1 | inconclusive: 32.6 µM [inhibitor, single point]
CCOc1ccc(N/C=C/C(=O)c2ccc3ccccc3c2)c([N+](=O)[O-])c1 | inconclusive: 1.84 µM [activator, full curve]
C/C(=C/C=N/Nc1nc(N2CCCCC2)nc(N2CCCCC2)n1)c1ccccc1 | inactive
Cn1nc(C(=O)NC2CCCCC2)c2c1-c1ccccc1SC2 | inconclusive: 18.3 µM [activator, single point]
CCN(CCn1cccn1)C(=O)CCc1nnc(-c2ccc3c(c2)OCO3)o1 | inconclusive: 18.3 µM [activator, single point]
COc1cc(Cl)c(CC(=O)c2c[nH]c3ccccc23)cc1OC | inconclusive: 16.4 µM [inhibitor, partial curve]

In the list so far, two have a COOH group.
SMILES | Potency
CCc1ccc(-c2cc(C(=O)O)c3ccccc3n2)s1 | inconclusive: 2.59 µM [activator, full curve]
Cc1ccc(S(=O)(=O)NN2C(=O)/C(=C/c3ccc(C(=O)O)cc3)SC2=S)cc1 | inconclusive: 20.6 µM [activator, partial curve, poor fit]

A draw from above in order of number of heavy atoms, high to low:
SMILES | Potency
COc1ccc(CNC(=O)CNC(=O)CNS(=O)(=O)c2ccc(C)c(C)c2)cc1 | inactive
Cc1ccc(S(=O)(=O)NN2C(=O)/C(=C/c3ccc(C(=O)O)cc3)SC2=S)cc1 | inconclusive: 20.6 µM [activator, partial curve, poor fit]
O=C(c1ccc(F)cc1Cl)N1CCN(S(=O)(=O)c2cccs2)CC1 | inactive

The list continues.

SMILES | Potency
COc1ccc(/C=C(\C#N)C(=O)NCc2cccs2)cc1OC | inactive
Cc1nc2sc(C(c3cccs3)N3CCOCC3)c(O)n2n1 (centres undefined) | inconclusive: 20.6 µM [activator, partial curve, poor fit]
COc1ccc(/C=C/c2nc(C#N)c(NCCN(C)C)o2)cc1OC | inactive
CCc1cccc(NC(=O)CN(c2ccc(C)cc2)S(=O)(=O)c2c(C)noc2C)c1 | inactive
CCOCC(=O)Nc1c(C(=O)Nc2ccccc2OC)oc2ccccc12 | inactive
Cc1ccc(-c2csc(NC(=O)c3cnccn3)n2)cc1C | inconclusive: 14.6 µM [activator, partial curve, poor fit]
COc1ccc(C)cc1-n1c(SCC(=O)Nc2cc(C)on2)nc2sc(C)c(C)c2c1=O | inactive
O=S(=O)(NCc1ccncc1)c1ccccc1 | inconclusive: 3.66 µM [inhibitor, partial curve, poor fit]
CC(C)C1=NN(C(=O)c2cccnc2)C(O)(C(F)(F)F)C1 (centres undefined) | inactive
COc1cc(S(=O)(=O)NCc2ccncc2)c(OC)cc1Cl | inconclusive: 14.6 µM [inhibitor, partial curve]
COc1ccc(-c2nc(CSCC(=O)NC3CC3)c(C)o2)cc1OC | inactive
O=C(CCN1C(=O)/C(=C\C=C\c2ccccc2)SC1=S)Nc1cccc(C(=O)O)c1 | inconclusive: 18.3 µM [activator, partial curve, poor fit]
COc1ccccc1C(=O)OC(C)CN1CCN(C)CC1 (centres undefined) | inactive
O=C(Cn1cc(C(F)(F)F)ccc1=O)NCc1ccc(F)cc1 | inconclusive: 18.3 µM [activator, partial curve]
COc1ccc(-c2[nH]ncc2CNCC(C)(C)N2CCOCC2)cc1F | inconclusive: 18.3 µM [inhibitor, single point]
O=C(Cc1cccc2ccccc12)NC(=S)Nc1cccc(C(=O)O)c1 | inactive
COc1ccc(CNC(=O)C(NC(C)=O)C(=O)Nc2ccc(C(C)C)cc2)cc1 (centres undefined) | inactive
CCC1CCC(N2CCN(c3cccc(OC)c3)CC2)CC1 (centres undefined) | inactive
O=C(Nc1ccncc1)C1CCN(S(=O)(=O)c2ccc(Cl)c(C(F)(F)F)c2)CC1 | inactive
CC(C)(C)OC(=O)CN1c2cccc3cccc(c23)S1(=O)=O | inactive
CC(=O)c1c2c3c(c(Br)ccc3n(C)c1=O)C(=O)c1ccccc1-2 | inactive
CC(COc1ccc(/C=C/c2ccccc2)cc1)[N+](C)(C)C (centres undefined) | inconclusive: 35.5 µM [activator, single point]
COc1cc(/C=N/Nc2cccc3cccnc23)cc(OC)c1O | inconclusive: 29.1 µM [inhibitor, single point]
CCc1cc[n+](/C(C(=S)Nc2cccc(C)c2)=C(/[O-])c2ccc(C)c([N+](=O)[O-])c2)cc1 | inactive
